From doi:10.1101/2021.03.31.437821
Results are given in words; binding and its absence hold for the method and conditions named. In cells and extracts the contact can be indirect. Some binding calls cover weakened binding; strength is not graded here. Sequences can lack the tags named with a protein.

Chains of the proteins cited; added tags and fusions are not shown.
UniProt P49902, whole entry: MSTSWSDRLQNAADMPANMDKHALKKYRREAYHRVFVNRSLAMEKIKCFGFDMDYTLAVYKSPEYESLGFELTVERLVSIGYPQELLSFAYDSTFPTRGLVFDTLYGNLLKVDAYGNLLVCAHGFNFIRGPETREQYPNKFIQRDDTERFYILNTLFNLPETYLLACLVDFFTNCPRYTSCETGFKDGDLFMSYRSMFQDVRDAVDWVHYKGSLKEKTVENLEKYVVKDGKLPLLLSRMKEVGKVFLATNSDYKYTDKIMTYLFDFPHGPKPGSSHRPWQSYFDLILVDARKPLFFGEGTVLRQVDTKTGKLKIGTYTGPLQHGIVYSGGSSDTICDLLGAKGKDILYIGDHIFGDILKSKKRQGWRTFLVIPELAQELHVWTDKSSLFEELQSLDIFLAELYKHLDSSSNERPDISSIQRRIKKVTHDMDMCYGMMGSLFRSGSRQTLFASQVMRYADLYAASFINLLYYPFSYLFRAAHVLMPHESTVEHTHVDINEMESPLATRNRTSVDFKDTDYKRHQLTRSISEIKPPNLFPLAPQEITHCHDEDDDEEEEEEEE

Target: Myc-NT5C2 (5'-nucleotidase, cytosolic II) (human) (UniProt P49902)
Experiment: co-IP

binding: binds
B1: HA-ZNF804A (zinc finger protein 804A) (protein, UniProt Q7Z570 1-1209)
chain: MECYYIVISSTHLSNGHFRNIKGVFRGPLSKNGNKTLDYAEKENTIAKALEDLKANFYCELCDKQYYKHQEFDNHINSYDHAHKQRLKELKQREFARNVASKSRKDERKQEKALQRLHKLAELRKETVCAPGSGPMFKSTTVTVRENCNEISQRVVVDSVNNQQDFKYTLIHSEENTKDATTVAEDPESANNYTAKNNQVGDQAQGIHRHKIGFSFAFPKKASVKLESSAAAFSEYSDDASVGKGFSRKSRFVPSACHLQQSSPTDVLLSSEEKTNSFHPPEAMCRDKETVQTQEIKEVSSEKDALLLPSFCKFQLQLSSDADNCQNSVPLADQIPLESVVINEDIPVSGNSFELLGNKSTVLDMSNDCISVQATTEENVKHNEASTTEVENKNGPETLAPSNTEEVNITIHKKTNFCKRQCEPFVPVLNKHRSTVLQWPSEMLVYTTTKPSISYSCNPLCFDFKSTKVNNNLDKNKPDLKDLCSQQKQEDICMGPLSDYKDVSTEGLTDYEIGSSKNKCSQVTPLLADDILSSSCDSGKNENTGQRYKNISCKIRETEKYNFTKSQIKQDTLDEKYNKIRLKETHEYWFHKSRRKKKRKKLCQHHHMEKTKESETRCKMEAENSYTENAGKYLLEPISEKQYLAAEQLLDSHQLLDKRPKSESISLSDNEEMCKTWNTEYNTYDTISSKNHCKKNTILLNGQSNATMIHSGKHNLTYSRTYCCWKTKMSSCSQDHRSLVLQNDMKHMSQNQAVKRGYNSVMNESERFYRKRRQHSHSYSSDESLNRQNHLPEEFLRPPSTSVAPCKPKKKRRRKRGRFHPGFETLELKENTDYPVKDNSSLNPLDRLISEDKKEKMKPQEVAKIERNSEQTNQLRNKLSFHPNNLLPSETNGETEHLEMETTSGELSDVSNDPTTSVCVASAPTKEAIDNTLLEHKERSENINLNEKQIPFQVPNIERNFRQSQPKSYLCHYELAEALPQGKMNETPTEWLRYNSGILNTQPPLPFKEAHVSGHTFVTAEQILAPLALPEQALLIPLENHDKFKNVPCEVYQHILQPNMLANKVKFTFPPAALPPPSTPLQPLPLQQSLCSTSVTTIHHTVLQQHAAAAAAAAAAAAAGTFKVLQPHQQFLSQIPALTRTSLPQLSVGPVGPRLCPGNQPTFVAPPQMPIIPASVLHPSHLAFPSLPHALFPSLLSPHPTVIPLQPLF
